Assay results as given in patent publication US20230331827A1, “POTASSIUM CHANNEL INHIBITORS” (priority 2017, published 2023).

B1: KB_A07: EETI-II knottin fused into VL CDR2, D1A12 VH; parental KnotBody, isotype control (antibody, V domains shown)
VH: EVQLVESGGGLVRPGGSLRLSCAASGFTFSSYAMSWVRQAPGKGLEWVSAISGSGGSTYYADSVKGRFTISRDNTKNSLYLQMTSLRADDTAFYYCVKDFGPGYGTGWFDYWGPGTLVTVSS
VL: DIQMTQSPSSLSASVGDRVTITCRASQSISSYLNWYQQKPGKAPKLLIYAAGVCPRILMRCKQDSDCLAGCVCGPNGFCGSRSGVPSRFSGSGSGTDFTLTISSLQPEDFATYYCQQGASPPYTFGQGTKVEIKRT
B2: KB_A12: EETI-II knottin fused into VL CDR2, D1A12 VH; parental KnotBody, isotype control (antibody, V domains shown)
VH: EVQLVESGGGLVRPGGSLRLSCAASGFTFSSYAMSWVRQAPGKGLEWVSAISGSGGSTYYADSVKGRFTISRDNTKNSLYLQMTSLRADDTAFYYCVKDFGPGYGTGWFDYWGPGTLVTVSS
VL: QSVLTQPPSVSEAPRQRVTITCSGSSSNIGNNAVNWYQQLPGKAPKLLIYAAGRCPRILMRCKQDSDCLAGCVCGPNGFCGANSGVSDRFSAAKSGTSASLAINGLRSEDEADYYCAAWDDSLNGYVFGTGTKLTVLGQP

Test system: trypsin
Assay: Flow cytometry of KnotBody scFv-Fc displayed on HEK293 cells (anti-Fc and trypsin staining)
Format: cell-based
Conditions: HEK293, 15 dpt, after 13 days of blasticidin selection

Molecule	cells dual stained for Fc and trypsin [%]
B1	34
B2	11
